Assay results from the supplement of paper PMC11659162.
Some of the results follow. The data scatter; read single values as rough.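 The cells are a human neuroglioma line carrying a green fluorescent autophagy reporter.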

Assays:
[1] = tested on: H4 GFP-LC3; test: cell viability (scaled to control) (fraction of control); higher = more viable cells
[2] = tested on: H4 GFP-LC3; test: ACBP immunofluorescence intensity (scaled to control) (AU (scaled)); higher = more intracellular ACBP/DBI

| SMILES | cell viability ([1]; 6 h) | cell viability ([1]; 24 h) | ACBP immunofluorescence intensity ([2]; 6 h) | ACBP immunofluorescence intensity ([2]; 24 h) |
| --- | --- | --- | --- | --- |
| N=C(N)S/C=C\C(=O)O (5 µM) | 0.927 | 0.938 | 0.875 | 0.857 |
| NC1(C(=O)O)CC1 (5 µM) | 1.19 | 1.18 | 0.661 | 0.678 |
| Cc1ccccc1C(OCCN(C)C)c1ccccc1 (configuration not stated) (5 µM) | 1 | 1.19 | 0.823 | 0.507 |
| O=C(O)CNc1ccc(P(=O)(O)O)cc1 (5 µM) | 1.2 | 1.22 | 0.639 | 0.333 |
| CC(COc1ccccc1)N(CCCl)Cc1ccccc1 (configuration not stated) (5 µM) | 0.744 | 0.71 | 0.908 | 0.53 |
| CC[C@H](C)[C@H](NC(=O)[C@H](CC(=O)O)NC(=O)[C@H](CC(C)C)NC(=O)[C@H](Cc1c[nH]cn1)NC(=O)[C@@H]1CSSC[C@@H](N)C(=O)N[C@H](CO)C(=O)N[C@H]2CSSC[C@@H](NC(=O)[C@H](CCC(=O)O)NC(=O)[C@H](CCCCN)NC(=O)[C@@H](CC(=O)O)NC(=O)[C@H](CCSC)NC(=O)[C@@H](CC(C)C)NC(=O)[C@H](CO)NC(=O)[C@@H](CO)NC2=O)C(=O)N[C@@H](C(C)C)C(=O)N[C@H](Cc2ccc(O)cc2)C(=O)N[C@@H](Cc2ccccc2)C(=O)N1)C(=O)N[C@H](C(=O)N[C@@H](Cc1c[nH]c2ccccc12)C(=O)O)[C@@H](C)CC (5 µM) | 1.12 | 0.973 | 0.575 | 0.64 |
| CCOC(=O)N1CCC(=C2c3ccc(Cl)cc3CCc3cccnc32)CC1 (5 µM) | 0.993 | 0.899 | 0.947 | 0.759 |
| CC(C)NCC(O)c1ccc(NS(C)(=O)=O)cc1 (configuration not stated) (5 µM) | 0.708 | 0.962 | 0.908 | 0.805 |
| CSCC[C@H](NC(=O)[C@H](Cc1ccc(OS(=O)(=O)O)cc1)NC(=O)[C@@H](N)CC(=O)O)C(=O)NCC(=O)N[C@@H](Cc1c[nH]c2ccccc12)C(=O)N[C@@H](CCSC)C(=O)N[C@@H](CC(=O)O)C(=O)N[C@@H](Cc1ccccc1)C(N)=O (5 µM) | 1.19 | 0.98 | 0.297 | 0.647 |
| O=C(O)[C@H]1CN[C@H](C(=O)O)C1 (5 µM) | 1.04 | 1.41 | 0.815 | 0.473 |
| c1cc(CN2CCCCC2)cc(OCCCNc2nc3ccccc3s2)c1 (5 µM) | 1.08 | 1.03 | 0.902 | 0.569 |
| NS(=O)(=O)c1cc2c(cc1Cl)NC(C1CC3C=CC1C3)NS2(=O)=O (configuration not stated) (5 µM) | 1.01 | 1.19 | 0.807 | 0.32 |
| COc1ccc2c3c1O[C@H]1C[C@@H](O)C=C[C@@]31CCN(C)C2 (5 µM) | 0.665 | 1.11 | 0.963 | 0.602 |
| C[C@@H](C[C@H](N)C(=O)O)C(=O)O (5 µM) | 1.06 | 1.16 | 0.964 | 0.695 |
| CC(C[N+](C)(C)C)OC(N)=O (configuration not stated) (5 µM) | 0.949 | 1.34 | 0.965 | 0.876 |
| COc1ccccc1N1CCN(CCCNc2cc(=O)n(C)c(=O)n2C)CC1 (5 µM) | 0.911 | 0.906 | 0.693 | 0.51 |
| CC1c2ccccc2CN1CC1=NCCN1 (configuration not stated) (5 µM) | 0.946 | 1 | 0.86 | 0.553 |
| OC(CN1CCN(c2cccc(Cl)c2)CC1)C(c1ccccc1)c1ccccc1 (configuration not stated) (5 µM) | 0.715 | 0.623 | 0.999 | 0.908 |
| COc1ccccc1N1CCN(CCCCN2C(=O)c3ccccc3C2=O)CC1 (5 µM) | 0.896 | 1.09 | 0.681 | 0.578 |
| O=C(O)[C@@H]1C[C@H](CP(=O)(O)O)CCN1 (5 µM) | 1.01 | 1.18 | 0.969 | 0.836 |
| C[C@@H]1C[C@H]2[C@@H]3CCC4=CC(=O)C=C[C@]4(C)[C@@]3(F)[C@@H](O)C[C@]2(C)[C@@]1(O)C(=O)CO (5 µM) | 1.18 | 1.24 | 0.682 | 0.185 |
| CS(=O)(=O)Nc1c(O)ccc2c1CCCC2C1=NCCN1 (configuration not stated) (5 µM) | 0.953 | 1.05 | 0.872 | 0.499 |
| O=C(O)[C@H]1C[C@H](C(=O)O)N1 (5 µM) | 1.06 | 1.21 | 0.868 | 0.343 |
| CC(CCc1ccc(O)cc1)NCCc1ccc(O)c(O)c1 (configuration not stated) (5 µM) | 0.944 | 0.924 | 0.77 | 0.334 |

Record cards, from the list above. Order of values: cell viability ([1]; 6 h) | cell viability ([1]; 24 h) | ACBP immunofluorescence intensity ([2]; 6 h) | ACBP immunofluorescence intensity ([2]; 24 h)
`Cc1ccccc1C(OCCN(C)C)c1ccccc1` (configuration not stated) (5 µM) is listed with 1 | 1.19 | 0.823 | 0.507
`CCOC(=O)N1CCC(=C2c3ccc(Cl)cc3CCc3cccnc32)CC1` (5 µM) is listed with 0.993 | 0.899 | 0.947 | 0.759

Carrying on.

| SMILES | cell viability ([1]; 6 h) | cell viability ([1]; 24 h) | ACBP immunofluorescence intensity ([2]; 6 h) | ACBP immunofluorescence intensity ([2]; 24 h) |
| --- | --- | --- | --- | --- |
| N[C@@H](CCS(=O)O)C(=O)O (5 µM) | 1.03 | 1.3 | 0.802 | 0.47 |
| C[C@H](C[C@H](N)C(=O)O)C(=O)O (5 µM) | 1.16 | 1.28 | 0.881 | 0.806 |
| N[C@@H](Cc1cc(I)c(Oc2ccc(O)c(I)c2)c(I)c1)C(=O)O [Triiodothyronine] (5 µM) | 1.05 | 1.1 | 0.483 | 0.704 |
| O=C(Nc1ccc(C(=O)Nc2ccc(C(=O)Nc3ccc(S(=O)(=O)O)c4cc(S(=O)(=O)O)cc(S(=O)(=O)O)c34)cc2)cc1)Nc1ccc(C(=O)Nc2ccc(C(=O)Nc3ccc(S(=O)(=O)O)c4cc(S(=O)(=O)O)cc(S(=O)(=O)O)c34)cc2)cc1 (5 µM) | 0.901 | 1.18 | 0.997 | 0.664 |
| O=C(NCCNCC(O)COc1ccc(O)cc1)N1CCOCC1 (configuration not stated) (5 µM) | 0.924 | 0.884 | 0.767 | 0.486 |
| N#Cc1ccccc1OCC(O)CNCCNC(=O)Nc1ccccc1 (configuration not stated) (5 µM) | 0.884 | 0.872 | 0.853 | 0.434 |
| Cc1cccc(/C=C/c2ccccc2)n1 (5 µM) | 0.966 | 1.27 | 0.866 | 0.592 |
| COC(=O)Nc1ccc2[nH]cc(CCNC(C)=O)c2c1 (5 µM) | 1.13 | 0.981 | 0.847 | 0.448 |
| N[C@@H](COP(=O)(O)O)C(=O)O (5 µM) | 1.05 | 1.13 | 0.765 | 0.408 |
| Cc1ccc(O)c(N=Nc2ccccc2)n1 (5 µM) | 0.913 | 1.33 | 0.924 | 0.686 |
| COc1ccccc1N1CCN(CCN2C(=O)c3ccccc3C(C)(C)C2=O)CC1 (5 µM) | 0.935 | 1.02 | 0.877 | 0.463 |
| CCC(C)C(NC(=O)C(CO)NC(=O)C(Cc1ccc(O)cc1)NC(=O)C(CC(=O)O)NC(=O)C(CO)NC(=O)C(NC(=O)C(Cc1ccccc1)NC(=O)C(NC(=O)CNC(=O)C(CCC(=O)O)NC(=O)C(C)NC(=O)C(N)Cc1ccc(O)cc1)C(C)O)C(C)CC)C(=O)NC(C)C(=O)NC(CCSC)C(=O)NC(CC(=O)O)C(=O)NC(CCCCN)C(=O)NC(C(=O)NC(Cc1c[nH]cn1)C(=O)NC(CCC(N)=O)C(=O)NC(CCC(N)=O)C(=O)NC(CC(=O)O)C(=O)NC(Cc1ccccc1)C(=O)NC(C(=O)NC(CC(N)=O)C(=O)NC(Cc1c[nH]c2ccccc12)C(=O)NC(CC(C)C)C(=O)NC(CC(C)C)C(=O)NC(C)C(=O)NC(CCC(N)=O)C(=O)NC(CCCCN)C(=O)NCC(=O)NC(CCCCN)C(=O)NC(CCCCN)C(=O)NC(CC(N)=O)C(=O)NC(CC(=O)O)C(=O)NC(Cc1c[nH]c2ccccc12)C(=O)NC(CCCCN)C(=O)NC(Cc1c[nH]cn1)C(=O)NC(CC(N)=O)C(=O)NC(C(=O)NC(C(=O)NC(CCC(N)=O)C(=O)O)C(C)O)C(C)CC)C(C)C)C(C)CC (configuration not stated) (5 µM) | 1.11 | 1.02 | 0.648 | 0.799 |
| CC(C)C[C@H](N)C(=O)N[C@H](C(=O)N[C@H](C(=O)N[C@@H](Cc1ccc(O)cc1)C(=O)N1CCC[C@H]1C(=O)N[C@@H](Cc1c[nH]c2ccccc12)C(=O)N[C@H](C(=O)N[C@@H](CCC(N)=O)C(=O)N[C@@H](CCCN=C(N)N)C(=O)O)[C@@H](C)O)C(C)C)C(C)C (5 µM) | 1.19 | 0.903 | 0.577 | 0.593 |
| CC(C)C[C@H](NC(=O)CNC(=O)[C@H](Cc1ccc(O)cc1)NC(=O)[C@H](CO)NC(=O)[C@H](Cc1c[nH]c2ccccc12)NC(=O)[C@H](Cc1cnc[nH]1)NC(=O)[C@@H]1CCC(=O)N1)C(=O)N[C@@H](CCCNC(=N)N)C(=O)N1CCC[C@H]1C(=O)NCC(N)=O (5 µM) | 1.22 | 1.07 | 0.412 | 0.792 |
| CCOC(=O)C12CC1/C(=N/O)c1ccccc1O2 (configuration not stated) (5 µM) | 1.02 | 1.08 | 0.943 | 0.673 |
| CN1CCN(C2=Nc3cc(Cl)ccc3Nc3ccccc32)CC1 (5 µM) | 0.731 | 0.972 | 0.975 | 0.436 |
| NC(N)=Nc1nc(CSCC/C(N)=N/S(N)(=O)=O)cs1 (5 µM) | 1.04 | 1.1 | 0.943 | 0.817 |
| CN(C)CCCN1c2ccccc2Sc2ccc(Cl)cc21 (5 µM) | 0.802 | 1.14 | 0.871 | 0.55 |
| Nc1nc2ccc(OC(F)(F)F)cc2s1 (5 µM) | 0.964 | 1.05 | 0.903 | 0.807 |
| COc1ccccc1N1CCN(CC(O)COc2cccc3ccccc23)CC1 (configuration not stated) (5 µM) | 0.926 | 1.06 | 0.844 | 0.48 |
| Cn1c(=O)c2c(nc(C=Cc3cccc(Cl)c3)n2C)n(C)c1=O (5 µM) | 0.988 | 1.16 | 1 | 0.903 |
| Nc1ncnc2c1ncn2[C@@H]1O[C@H](CO)[C@@H](O)[C@H]1O (5 µM) | 1.06 | 1.15 | 0.997 | 0.903 |
| N[C@@H](Cc1cc(CP(=O)(O)O)cc(-c2ccccc2Cl)c1)C(=O)O (5 µM) | 1.07 | 1.32 | 0.66 | 0.752 |
| CC[C@H](C)[C@H](NC(=O)[C@H](C)NC(=O)[C@H](CC(=O)O)NC(=O)[C@H](C)NC(=O)[C@@H](N)Cc1ccc(O)cc1)C(=O)N[C@@H](Cc1ccccc1)C(=O)N[C@H](C(=O)N[C@@H](CC(N)=O)C(=O)N[C@@H](CO)C(=O)N[C@@H](Cc1ccc(O)cc1)C(=O)N[C@@H](CCCNC(=N)N)C(=O)N[C@@H](CCCCN)C(=O)N[C@H](C(=O)N[C@@H](CC(C)C)C(=O)NCC(=O)N[C@@H](CCC(N)=O)C(=O)N[C@@H](CC(C)C)C(=O)N[C@@H](CO)C(=O)N[C@@H](C)C(=O)N[C@@H](CCCNC(=N)N)C(=O)N[C@@H](CCCCN)C(=O)N[C@@H](CC(C)C)C(=O)N[C@@H](CC(C)C)C(=O)N[C@@H](CCC(N)=O)C(=O)N[C@@H](CC(=O)O)C(=O)N[C@H](C(=O)N[C@@H](CCSC)C(=O)N[C@@H](CO)C(=O)N[C@@H](CCCNC(=N)N)C(=O)N[C@@H](CCC(N)=O)C(=O)N[C@@H](CCC(N)=O)C(=O)NCC(=O)N[C@@H](CCC(=O)O)C(=O)N[C@@H](CO)C(=O)N[C@@H](CC(N)=O)C(=O)N[C@@H](CCC(N)=O)C(=O)N[C@@H](CCC(=O)O)C(=O)N[C@@H](CCCNC(=N)N)C(=O)NCC(=O)N[C@@H](C)C(=O)N[C@@H](CCCNC(=N)N)C(=O)N[C@@H](C)C(=O)N[C@@H](CCCNC(=N)N)C(=O)N[C@@H](CC(C)C)C(N)=O)[C@@H](C)CC)C(C)C)[C@@H](C)O (5 µM) | 1.25 | 1.12 | 0.762 | 0.893 |
